The record followed here is patent US8609682B2 (priority 2008, dated 2013).

Each structure is given as a SMILES string.

The assay concerns guinea pig ileum longitudinal muscle strips. Kind of assay: Guinea pig ileum (GPI) assay. To be noted: Cavia porcellus. Further details: species or system Hartley guinea pig.

`CN1CC[C@]23c4c5ccc(O)c4O[C@H]2[C@@H](O)C=C[C@H]3[C@H]1C5` [morphine, reference compound]: the half-inhibitory concentration (IC50) was 50.6 nM.
